# From the supplement of paper PMC10338343
# ± gives the standard deviation. This is a selection; strong and weak results do not stand in their true shares. Many of these values have a large error.
# System: MIWI (PIWIL1) piRISC loaded with piRNA #1 (30 nt)
# Experiment: pre-steady-state target cleavage rate (min^-1); higher = faster piRNA-guided slicing of the target
# Conditions: guide: piRNA #1 5'p-UGAGGUAGUAGGUUGUAUAGUAUCCAGAGG; auxiliary factor: 500 nM mouse GTSF1
# Method in brief: (§1)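 The pre-steady-state cleavage rate was obtained by Cleave-'n-Seq with a burst-and-steady-state fit. A transcribed, DNA-blocked target RNA library (0.1 nM) was mixed with 1 nM active affinity-purified piRISC carrying one synthetic guide, with or without 500 nM GTSF1 partner protein, in HEPES–potassium acetate buffer at 33 °C for 0–8 or 0–960 min. Uncleaved targets were sequenced and normalised to depth and to weakly complementary targets, with three trials pooled and k3 capped at 0.0001 min^-1.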
row,Sequence,pre-steady-state target cleavage rate
1,GGAGACGAUACUAUACAACCUACUACGUGA,0.348 ± 0.054
2,GGAGACCUAUGAAUACAACCUACUACCUCCA,0.00185 ± 0.004
3,GGAGACCUAUGAAAACAACCUACAACCUCA,0.000254 ± 0.0091
4,GGAGACCUAUGUAUACAACCUACUACCUGCA,0.0855 ± 0.011
5,GGAGACCUAUGAAUACAACCUACUACGUCA,0.00208 ± 0.0022
6,GGAGACCUAUGUAAACAACCUACUACCUGA,0.000997 ± 0.0061
7,GGAGACCUAUGUAUAUCAACCUACUACCUCA,0.00121 ± 0.0031
8,GGAGACCUAUGAAUACAACCUACUGACCUCA,0.00187 ± 0.0038
9,GGAGACCUAUGUAUACUAGCUACUACCUCA,0.00105 ± 0.0071
10,GGAGACCUAAGUAUACAACCAACUACCUCA,0.00191 ± 0.0055
11,GGAGACCUAUCUAAAGAACCUACUACCUCA,0.00166 ± 0.0035
12,GGAGACCUAUGUAAACAAGCUACUACCUCA,0.00165 ± 0.004
13,GGAGACCUAACAAUACAACCAACUACCUCA,0.00111 ± 0.0079
14,GGAGACCUAUGAUAAUCAACCUACUACCUCA,0.000847 ± 0.0049
15,GGAGACCUAUGAUAUGUUGCUACAUGCUCA,0.00171 ± 0.0048
16,GGAGACCUAUGAAUACAACCUAGCUACCUCA,0.00153 ± 0.004
17,GGAGACCAUACAAUACAACCUACUAGCUCA,0.486 ± 0.067
18,GGAGAGAGAUACUAUACAACCUACUACCUCA,2.02 ± 0.12
19,GGAGACCUAUGAUAUGUUGGUACUACCUCA [g2:g10:cont:t1A],0.000232 ± 0.019
20,GGAGACCUAUGUAAACUACCUACUACCUCA,0.000252 ± 0.012

row,Sequence,pre-steady-state target cleavage rate
1,GGAGACCUAUGUAUACUACGUACUACCUCA,0.00129 ± 0.006
2,GGAGACCUAUGAAUACAACCUUCUACCUCA,0.00145 ± 0.0028
3,GGAGACCUAUGAAUACAACCUACUACCUGA,0.000958 ± 0.0041
4,GGAGACCUAUGAUAACAACCUAUCUACCUCA,0.00048 ± 0.0073
5,GGAGACCUAUGUAUUCAAGCUACUACCUCA,0.00239 ± 0.0024
6,GGAGACCUAUGAAUACAAGGUACUACCUCA,0.000201 ± 0.013
7,GGAGACCUAUGUAUACAACCUAACUACCUCA,0.00213 ± 0.0037
8,GGAGACCUAUGAUAUCAACCUAUCUACCUCA,0.000356 ± 0.0071
9,GGAGACCUUACAAUACAAGCUACUACCUCA,0.258 ± 0.035
10,GGAGACCUAUGAAAACAACCUACUAGCUCA,0.00027 ± 0.0087
11,GGAGACCUAUGUAAACAACCUACUUCCUCA,0.000892 ± 0.0053
12,GGAGACCUAUGAUAUGUUGCUACUACCUCC [g2:g11:cont:t1C],0.000197 ± 0.015
13,GGAGACCUAUGAAAACAACCUACUACCUCA,0.00128 ± 0.0073
14,GGAGACCUAUGUAAUCAACCUACUACCUCA,0.00115 ± 0.005
15,GGAGACCUAUCUAUACAACCUACAAGCUCA,0.00185 ± 0.0044
16,GGAGACCUAUGAAUACAACCUACGACCUCA,0.00105 ± 0.0039
17,GGAGACCUAUGAAUACAAGCUAGUACCUCA,0.000372 ± 0.005
18,GGAGACCUAUGAUUUCAUCCUACUACCUCA,0.000805 ± 0.0065
19,GGAGACCUAUGAUAACAACCUACUUACCUCA,0.00111 ± 0.004
20,GGAGACCUUUGAAUACAACCUACUACCUCA,0.00143 ± 0.0062

# System: EfPiwi piRISC loaded with piRNA #1 (26 nt)
# Experiment: pre-steady-state target cleavage rate (min^-1); guide: piRNA #1 5'p-UGAGGUAGUAGGUUGUAUAGUAUCCA; MIWI and MILI are mouse PIWI proteins and EfPiwi is from a freshwater sponge; tags in brackets are library labels; higher = faster piRNA-guided slicing of the target
# Conditions: auxiliary factor: 500 nM Ephydatia muelleri Gtsf1
# Method in brief: as §1
row,Sequence,pre-steady-state target cleavage rate
1,GGAGACGAUACUAUACAACCUACUACGUGA,0.00515 ± 0.0026
2,GGAGACCUAUGAAUACAACCUACUACCUCCA,0.00197 ± 0.0038
3,GGAGACCUAUGAAAACAACCUACAACCUCA,0.000541 ± 0.012
4,GGAGACCUAUGUAUACAACCUACUACCUGCA,0.000926 ± 0.0076
5,GGAGACCUAUGAAUACAACCUACUACGUCA,0.00135 ± 0.0051
6,GGAGACCUAUGUAAACAACCUACUACCUGA,0.00109 ± 0.0076
7,GGAGACCUAUGUAUAUCAACCUACUACCUCA,0.0039 ± 0.0041
8,GGAGACCUAUGAAUACAACCUACUGACCUCA,0.00017 ± 0.033
9,GGAGACCUAUGUAUACUAGCUACUACCUCA,0.000405 ± 0.0054
10,GGAGACCUAAGUAUACAACCAACUACCUCA,0.00237 ± 0.0063
11,GGAGACCUAUCUAAAGAACCUACUACCUCA,0.000271 ± 0.0096
12,GGAGACCUAUGUAAACAAGCUACUACCUCA,0.000471 ± 0.0073
13,GGAGACCUAACAAUACAACCAACUACCUCA,0.000738 ± 0.011
14,GGAGACCUAUGAUAAUCAACCUACUACCUCA,0.000973 ± 0.0077
15,GGAGACCUAUGAUAUGUUGCUACAUGCUCA,0.000928 ± 0.0093
16,GGAGACCUAUGAAUACAACCUAGCUACCUCA,0.000988 ± 0.0069
17,GGAGACCAUACAAUACAACCUACUAGCUCA,0.00531 ± 0.0057
18,GGAGAGAGAUACUAUACAACCUACUACCUCA,0.159 ± 0.057
19,GGAGACCUAUGAUAUGUUGGUACUACCUCA [g2:g10:cont:t1A],0.00103 ± 0.0056
20,GGAGACCUAUGUAAACUACCUACUACCUCA,0.00077 ± 0.0074

row,Sequence,pre-steady-state target cleavage rate
1,GGAGACCUAUGUAUACUACGUACUACCUCA,0.000428 ± 0.0049
2,GGAGACCUAUGAAUACAACCUUCUACCUCA,0.000979 ± 0.0062
3,GGAGACCUAUGAAUACAACCUACUACCUGA,0.00156 ± 0.0044
4,GGAGACCUAUGAUAACAACCUAUCUACCUCA,0.000713 ± 0.0096
5,GGAGACCUAUGUAUUCAAGCUACUACCUCA,0.00122 ± 0.0053
6,GGAGACCUAUGAAUACAAGGUACUACCUCA,0.0013 ± 0.0074
7,GGAGACCUAUGUAUACAACCUAACUACCUCA,0.000568 ± 0.011
8,GGAGACCUAUGAUAUCAACCUAUCUACCUCA,0.000184 ± 0.014
9,GGAGACCUUACAAUACAAGCUACUACCUCA,0.000496 ± 0.0037
10,GGAGACCUAUGAAAACAACCUACUAGCUCA,0.001 ± 0.0069
11,GGAGACCUAUGUAAACAACCUACUUCCUCA,0.000239 ± 0.01
12,GGAGACCUAUGAUAUGUUGCUACUACCUCC [g2:g11:cont:t1C],0.000454 ± 0.01
13,GGAGACCUAUGAAAACAACCUACUACCUCA,0.00243 ± 0.0032
14,GGAGACCUAUGUAAUCAACCUACUACCUCA,0.00131 ± 0.0052
15,GGAGACCUAUCUAUACAACCUACAAGCUCA,0.000603 ± 0.01
16,GGAGACCUAUGAAUACAACCUACGACCUCA,0.000883 ± 0.01
17,GGAGACCUAUGAAUACAAGCUAGUACCUCA,0.000291 ± 0.012
18,GGAGACCUAUGAUUUCAUCCUACUACCUCA,0.00175 ± 0.0048
19,GGAGACCUAUGAUAACAACCUACUUACCUCA,0.000305 ± 0.018
20,GGAGACCUUUGAAUACAACCUACUACCUCA,0.00525 ± 0.0038
